Experimental findings from paper PMC6660512 are described below.

By UniProt entry, the sequences of proteins in these tests, tags left out.
UniProt P52592: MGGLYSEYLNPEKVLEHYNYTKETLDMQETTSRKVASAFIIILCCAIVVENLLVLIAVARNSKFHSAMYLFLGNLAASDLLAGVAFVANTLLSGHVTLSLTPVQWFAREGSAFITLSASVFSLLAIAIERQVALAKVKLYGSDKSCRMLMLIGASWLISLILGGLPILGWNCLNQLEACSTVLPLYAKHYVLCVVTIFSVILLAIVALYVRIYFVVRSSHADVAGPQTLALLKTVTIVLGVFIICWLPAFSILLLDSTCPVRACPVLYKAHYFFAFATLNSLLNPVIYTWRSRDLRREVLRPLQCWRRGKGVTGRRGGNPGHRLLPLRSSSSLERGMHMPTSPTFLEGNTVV

One assay addresses T1, TrxA-SPARC (UniProt P09486).
T1 sequence: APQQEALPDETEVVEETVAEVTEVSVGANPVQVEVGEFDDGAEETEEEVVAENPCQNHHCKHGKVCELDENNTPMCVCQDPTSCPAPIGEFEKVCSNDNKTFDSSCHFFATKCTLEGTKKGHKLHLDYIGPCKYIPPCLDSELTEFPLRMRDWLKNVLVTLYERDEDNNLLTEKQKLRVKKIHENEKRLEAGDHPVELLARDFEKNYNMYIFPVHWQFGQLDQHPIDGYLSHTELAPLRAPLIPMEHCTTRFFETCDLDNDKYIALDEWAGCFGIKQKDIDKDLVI
In words: pull-down; IMAC using TrxA-SPARC with human brain and liver lysates (Fig. 2e); brain lysates of wild-type and Nogo-A KO mice (Suppl. Figure 3a, set-up not shown); only the target purified.

The target in assay [1] is T2, Nogo-A (endogenous, mouse brain) (mouse (endogenous in mouse brain)) (UniProt Q99P72).
T2 sequence: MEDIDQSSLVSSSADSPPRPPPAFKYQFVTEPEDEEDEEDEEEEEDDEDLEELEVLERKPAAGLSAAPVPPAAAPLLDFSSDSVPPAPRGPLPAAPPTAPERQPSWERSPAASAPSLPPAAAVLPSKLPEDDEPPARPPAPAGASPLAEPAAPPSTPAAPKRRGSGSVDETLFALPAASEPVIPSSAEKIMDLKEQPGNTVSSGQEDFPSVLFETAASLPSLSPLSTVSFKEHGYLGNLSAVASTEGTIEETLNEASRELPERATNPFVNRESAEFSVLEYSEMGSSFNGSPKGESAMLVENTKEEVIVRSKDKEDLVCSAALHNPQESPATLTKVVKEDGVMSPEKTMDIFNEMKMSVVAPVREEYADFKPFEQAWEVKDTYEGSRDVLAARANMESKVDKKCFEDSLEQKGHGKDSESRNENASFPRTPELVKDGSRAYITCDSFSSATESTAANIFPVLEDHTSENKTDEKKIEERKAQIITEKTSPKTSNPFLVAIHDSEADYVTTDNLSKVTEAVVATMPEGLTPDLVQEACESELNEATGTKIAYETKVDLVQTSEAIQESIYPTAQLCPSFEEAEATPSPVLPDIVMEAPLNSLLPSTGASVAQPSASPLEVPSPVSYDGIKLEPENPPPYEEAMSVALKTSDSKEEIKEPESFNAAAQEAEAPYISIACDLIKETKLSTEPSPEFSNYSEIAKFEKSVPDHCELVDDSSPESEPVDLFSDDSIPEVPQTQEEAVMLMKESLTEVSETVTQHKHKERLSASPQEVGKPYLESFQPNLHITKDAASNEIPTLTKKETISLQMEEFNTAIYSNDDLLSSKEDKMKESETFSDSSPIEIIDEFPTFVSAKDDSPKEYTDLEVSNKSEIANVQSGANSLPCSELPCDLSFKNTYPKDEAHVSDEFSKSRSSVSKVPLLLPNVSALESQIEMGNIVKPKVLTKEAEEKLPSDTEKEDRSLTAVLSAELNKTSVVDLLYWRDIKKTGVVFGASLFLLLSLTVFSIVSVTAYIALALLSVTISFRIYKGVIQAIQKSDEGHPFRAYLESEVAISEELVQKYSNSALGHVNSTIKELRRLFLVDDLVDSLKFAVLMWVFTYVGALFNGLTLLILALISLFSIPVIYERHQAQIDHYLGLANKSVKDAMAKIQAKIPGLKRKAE
The experiment in a line: co-IP; co-precipitation of Nogo-A with S1PR2 and with SPARC lacking the Kazal-like module (Suppl. Figure 4n); set-up not shown.

For assay [2], the target named is T2, Nogo-A (endogenous, mouse brain) (mouse (endogenous in mouse brain)). The experiment in a line: co-IP; co-IP of Nogo-A, S1PR2 and SPARC from brain lysates of mice xenografted without glioblastoma cells (nx) or with LN308 cells expressing shCTR or shSPARC (Fig. 2i).

These are yes or no findings as the source states them, for the method shown. Binding seen in cells or lysates may run through a third protein. Some entries that bind do so weakly or less than the wild type.

For “Nogo-A (endogenous, human brain) (from UniProt Q9NQC3-1 1-1192)”, the binding result with TrxA-SPARC is “binds”.

Consider “sphingosine 1-phosphate receptor 2 (S1PR2), in brain lysates (from UniProt P52592 1-352)”, for which the binding result in assay [1] and in assay [2] was “binds” throughout.

B1: SPARC produced by xenografted LN308 glioblastoma cells (protein, UniProt P09486 18-303)
chain: APQQEALPDETEVVEETVAEVTEVSVGANPVQVEVGEFDDGAEETEEEVVAENPCQNHHCKHGKVCELDENNTPMCVCQDPTSCPAPIGEFEKVCSNDNKTFDSSCHFFATKCTLEGTKKGHKLHLDYIGPCKYIPPCLDSELTEFPLRMRDWLKNVLVTLYERDEDNNLLTEKQKLRVKKIHENEKRLEAGDHPVELLARDFEKNYNMYIFPVHWQFGQLDQHPIDGYLSHTELAPLRAPLIPMEHCTTRFFETCDLDNDKYIALDEWAGCFGIKQKDIDKDLVI
With B1, in assay [2], the binding result is “binds”.

B2: Nogo-A (endogenous, mouse brain) (protein, UniProt Q99P72-2 1-1162)
chain: MEDIDQSSLVSSSADSPPRPPPAFKYQFVTEPEDEEDEEDEEEEEDDEDLEELEVLERKPAAGLSAAPVPPAAAPLLDFSSDSVPPAPRGPLPAAPPTAPERQPSWERSPAASAPSLPPAAAVLPSKLPEDDEPPARPPAPAGASPLAEPAAPPSTPAAPKRRGSGSVDETLFALPAASEPVIPSSAEKIMDLKEQPGNTVSSGQEDFPSVLFETAASLPSLSPLSTVSFKEHGYLGNLSAVASTEGTIEETLNEASRELPERATNPFVNRESAEFSVLEYSEMGSSFNGSPKGESAMLVENTKEEVIVRSKDKEDLVCSAALHNPQESPATLTKVVKEDGVMSPEKTMDIFNEMKMSVVAPVREEYADFKPFEQAWEVKDTYEGSRDVLAARANMESKVDKKCFEDSLEQKGHGKDSESRNENASFPRTPELVKDGSRAYITCDSFSSATESTAANIFPVLEDHTSENKTDEKKIEERKAQIITEKTSPKTSNPFLVAIHDSEADYVTTDNLSKVTEAVVATMPEGLTPDLVQEACESELNEATGTKIAYETKVDLVQTSEAIQESIYPTAQLCPSFEEAEATPSPVLPDIVMEAPLNSLLPSTGASVAQPSASPLEVPSPVSYDGIKLEPENPPPYEEAMSVALKTSDSKEEIKEPESFNAAAQEAEAPYISIACDLIKETKLSTEPSPEFSNYSEIAKFEKSVPDHCELVDDSSPESEPVDLFSDDSIPEVPQTQEEAVMLMKESLTEVSETVTQHKHKERLSASPQEVGKPYLESFQPNLHITKDAASNEIPTLTKKETISLQMEEFNTAIYSNDDLLSSKEDKMKESETFSDSSPIEIIDEFPTFVSAKDDSPKEYTDLEVSNKSEIANVQSGANSLPCSELPCDLSFKNTYPKDEAHVSDEFSKSRSSVSKVPLLLPNVSALESQIEMGNIVKPKVLTKEAEEKLPSDTEKEDRSLTAVLSAELNKTSVVDLLYWRDIKKTGVVFGASLFLLLSLTVFSIVSVTAYIALALLSVTISFRIYKGVIQAIQKSDEGHPFRAYLESEVAISEELVQKYSNSALGHVNSTIKELRRLFLVDDLVDSLKFAVLMWVFTYVGALFNGLTLLILALISLFSIPVIYERHQAQIDHYLGLANKSVKDAMAKIQAKIPGLKRKAE
For B2, the binding entry with TrxA-SPARC is “binds”.
